Measurements published in paper PMC12376507.

Biological target: T1, Flag-HPD (4-hydroxyphenylpyruvate dioxygenase with N-terminal Flag tag) (human) (UniProt P32754)
T1 sequence: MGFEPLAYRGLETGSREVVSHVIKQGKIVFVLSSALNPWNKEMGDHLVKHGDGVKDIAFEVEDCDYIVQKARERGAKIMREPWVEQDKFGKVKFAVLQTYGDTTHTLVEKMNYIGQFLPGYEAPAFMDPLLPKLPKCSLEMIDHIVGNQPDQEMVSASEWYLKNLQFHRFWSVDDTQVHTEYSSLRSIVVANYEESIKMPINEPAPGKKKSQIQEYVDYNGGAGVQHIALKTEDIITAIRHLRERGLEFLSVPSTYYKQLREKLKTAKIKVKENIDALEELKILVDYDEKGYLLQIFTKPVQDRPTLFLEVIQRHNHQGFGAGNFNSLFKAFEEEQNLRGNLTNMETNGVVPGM
Assay: affinity purification with mass spectrometry; Flag-HPD overexpressed in A2780 cells for 48 h; lysate immunoprecipitated with Flag antibody, IgG as negative control; SDS-PAGE, bands analysed by mass spectrometry

binding: binds
Substance: RPL20 (human (endogenous in A2780))

Results are given in words; binding and its absence hold for the method and conditions named. Binding seen in cells or lysates may run through a third protein. Here binding means that the protein was enriched with, or labelled near, the bait; the list need not be complete. Tags and fused reporters may be left off the sequences shown.
